Data: paper PMC8531281
No constants are given. Whether binding was seen depends on the method and setting. Binding seen in cells or lysates may run through a third protein. Some binding calls cover weakened binding; strength is not graded here.

Protein sequences, listed by entry. Tags and fused reporters are not part of them. Lines headed by an entry give the natural chain unless they say otherwise; changes in a name come on top.
UniProt Q99683: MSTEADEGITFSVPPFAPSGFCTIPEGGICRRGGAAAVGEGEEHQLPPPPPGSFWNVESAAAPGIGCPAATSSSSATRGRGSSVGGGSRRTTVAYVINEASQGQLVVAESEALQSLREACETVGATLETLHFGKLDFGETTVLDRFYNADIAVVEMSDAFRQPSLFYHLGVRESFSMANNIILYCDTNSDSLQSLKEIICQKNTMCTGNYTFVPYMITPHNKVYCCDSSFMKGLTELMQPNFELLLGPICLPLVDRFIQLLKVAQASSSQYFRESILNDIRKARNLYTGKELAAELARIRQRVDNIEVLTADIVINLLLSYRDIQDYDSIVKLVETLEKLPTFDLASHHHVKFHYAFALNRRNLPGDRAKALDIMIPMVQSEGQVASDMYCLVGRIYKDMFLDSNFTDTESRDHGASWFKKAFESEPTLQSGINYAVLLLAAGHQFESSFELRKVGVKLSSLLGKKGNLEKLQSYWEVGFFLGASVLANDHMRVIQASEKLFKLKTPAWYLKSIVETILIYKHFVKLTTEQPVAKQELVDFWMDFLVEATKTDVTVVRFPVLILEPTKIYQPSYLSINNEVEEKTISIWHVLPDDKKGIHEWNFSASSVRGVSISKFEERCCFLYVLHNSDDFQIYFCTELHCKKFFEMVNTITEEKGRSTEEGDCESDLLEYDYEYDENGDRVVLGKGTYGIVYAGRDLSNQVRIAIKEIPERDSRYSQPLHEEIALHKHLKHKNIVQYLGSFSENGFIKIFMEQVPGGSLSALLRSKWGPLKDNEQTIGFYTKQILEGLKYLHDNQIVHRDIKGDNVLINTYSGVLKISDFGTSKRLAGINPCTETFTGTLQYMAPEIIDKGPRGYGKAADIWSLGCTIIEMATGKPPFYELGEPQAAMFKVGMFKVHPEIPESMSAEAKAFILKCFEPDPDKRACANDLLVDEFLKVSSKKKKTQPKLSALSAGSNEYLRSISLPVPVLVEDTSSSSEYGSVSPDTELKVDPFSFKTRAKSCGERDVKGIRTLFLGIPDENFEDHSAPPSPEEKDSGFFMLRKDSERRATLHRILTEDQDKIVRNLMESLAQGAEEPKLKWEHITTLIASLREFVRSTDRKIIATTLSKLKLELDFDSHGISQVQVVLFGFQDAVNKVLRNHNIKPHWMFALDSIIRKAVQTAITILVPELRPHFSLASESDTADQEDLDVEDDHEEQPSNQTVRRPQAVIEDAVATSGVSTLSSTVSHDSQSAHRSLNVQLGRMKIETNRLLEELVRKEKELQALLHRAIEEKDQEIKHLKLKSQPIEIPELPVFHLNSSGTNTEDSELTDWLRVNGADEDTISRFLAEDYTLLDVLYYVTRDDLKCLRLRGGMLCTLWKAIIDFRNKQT
UniProt Q8N4A0: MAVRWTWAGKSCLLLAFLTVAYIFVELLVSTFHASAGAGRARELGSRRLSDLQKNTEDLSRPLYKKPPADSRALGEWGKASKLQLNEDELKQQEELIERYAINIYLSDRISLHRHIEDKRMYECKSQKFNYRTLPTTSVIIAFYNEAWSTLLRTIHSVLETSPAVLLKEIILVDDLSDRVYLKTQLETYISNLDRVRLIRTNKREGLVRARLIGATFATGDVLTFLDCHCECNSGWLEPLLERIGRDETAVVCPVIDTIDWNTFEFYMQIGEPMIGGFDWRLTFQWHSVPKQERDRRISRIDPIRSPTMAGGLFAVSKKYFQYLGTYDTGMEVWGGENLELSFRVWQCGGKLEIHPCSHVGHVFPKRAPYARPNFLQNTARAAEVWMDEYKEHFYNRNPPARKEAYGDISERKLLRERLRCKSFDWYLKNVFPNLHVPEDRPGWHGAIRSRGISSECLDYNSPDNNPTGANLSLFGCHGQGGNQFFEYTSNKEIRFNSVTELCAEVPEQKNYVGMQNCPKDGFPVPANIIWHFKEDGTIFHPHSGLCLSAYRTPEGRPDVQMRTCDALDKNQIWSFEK

Assays:
ASK1 (1–678) = ASK1 (1–678) (UniProt Q99683); experiment: co-IP; dimerization of ASK1 (1-678) in 293T cells, effect of GALNT4 (Fig. 6J)
GST-HA-ASK1 = GST-HA-ASK1 (UniProt Q99683); experiment: pull-down; GST-HA fusion purified on GST beads from eukaryotic cells, mixed with the FLAG-tagged partner overnight at 4 °C; lysis buffer 50 mM Na2HPO4 pH 8.0, 300 mM NaCl, 1% TritonX-100; western blot; only the target purified
HA-ASK1 = HA-ASK1 (UniProt Q99683); experiment: co-IP; 293T cells co-transfected with Flag-GALNT4 and HA-ASK1, 24 h; IP lysis buffer (20 mM Tris-HCl pH 7.4, 150 mM NaCl, 1 mM EDTA, 1% NP-40); protein G agarose with anti-FLAG or anti-HA antibody, 4 °C overnight; washes with 300 mM and 150 mM NaCl; western blot

binding (ASK1 (1–678))	binding (GST-HA-ASK1)	binding (HA-ASK1)	Substance
binds	–	–	ASK1 (1–678) (from UniProt Q99683 1-678) (domain or fragment)
–	binds	binds	Flag-GALNT4 (polypeptide N-acetylgalactosaminyltransferase 4) (from UniProt Q8N4A0 1-578)
binds	–	–	GALNT4 (co-expressed in the ASK1 (1–678) dimerization experiment) (from UniProt Q8N4A0 1-578)
